We go through one molecule from article PMC13233068, “HSD17B7 is required for the function of sensory hair cells by regulating cholesterol synthesis” (eLife, 2026).

The assay has as its target T1, Flag-tagged HSD17B7 (human) (UniProt P56937).
T1 sequence: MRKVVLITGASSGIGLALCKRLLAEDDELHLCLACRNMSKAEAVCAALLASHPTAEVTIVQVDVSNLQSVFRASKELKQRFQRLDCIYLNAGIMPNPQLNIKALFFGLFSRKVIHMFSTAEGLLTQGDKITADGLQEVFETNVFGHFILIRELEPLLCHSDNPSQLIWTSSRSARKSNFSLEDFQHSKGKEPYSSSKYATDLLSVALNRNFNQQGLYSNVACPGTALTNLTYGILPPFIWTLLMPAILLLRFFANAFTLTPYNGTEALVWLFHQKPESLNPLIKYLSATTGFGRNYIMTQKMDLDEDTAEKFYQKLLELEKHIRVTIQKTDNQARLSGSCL
The assay can be described thus: affinity purification with mass spectrometry; lysates of HEI-OC1 cells transfected with pCMV-Flag, pCMV-Flag-HSD17B7 or pCMV-Flag-HSD17B7^E182*, anti-Flag beads overnight at 4°C, washed three times with lysis buffer, nano-LC-MS/MS.

Results are given in words; binding and its absence hold for the method and conditions named. Binding seen in cells or lysates may run through a third protein. Here binding means that the protein was enriched with, or labelled near, the bait; the list need not be complete. Tags and fused reporters may be left off the sequences shown.

B1: RER1 (endogenous, HEI-OC1 cells) (protein, UniProt Q9CQU3 1-196)
chain: MSEGDSVGDSVHGKPSVVYRFFSRLGQIYQSWLDKSTPYTAVRWVVTLGLSFVYMIRVYLLQGWYIVTYALGIYHLNLFIAFLSPKVDPSLMEDSDDGPSLPTKQNEEFRPFIRRLPEFKFWHAATKGILVAMICTFFEAFNVPVFWPILVMYFIMLFCITMKRQIKHMIKYRYIPFTHGKRRYKGKEDVGKTFAS
Consider B1, for which the binding entry is “binds”.
